In data set [1] the target is hMMP-9 (gelatinase B) (Homo sapiens) (UniProt P14780). Kind of data set: SPR. The settings on record: 2'-F pyrimidines, 2'-OH purines, aptamer 200 nM, purified recombinant protein, protein details: Calbiochem, variant of F3B.
Data set [2] deals with T1, hMMP-2 (gelatinase A) (Homo sapiens) (UniProt P08253).
T1 sequence (looked up, limits assumed): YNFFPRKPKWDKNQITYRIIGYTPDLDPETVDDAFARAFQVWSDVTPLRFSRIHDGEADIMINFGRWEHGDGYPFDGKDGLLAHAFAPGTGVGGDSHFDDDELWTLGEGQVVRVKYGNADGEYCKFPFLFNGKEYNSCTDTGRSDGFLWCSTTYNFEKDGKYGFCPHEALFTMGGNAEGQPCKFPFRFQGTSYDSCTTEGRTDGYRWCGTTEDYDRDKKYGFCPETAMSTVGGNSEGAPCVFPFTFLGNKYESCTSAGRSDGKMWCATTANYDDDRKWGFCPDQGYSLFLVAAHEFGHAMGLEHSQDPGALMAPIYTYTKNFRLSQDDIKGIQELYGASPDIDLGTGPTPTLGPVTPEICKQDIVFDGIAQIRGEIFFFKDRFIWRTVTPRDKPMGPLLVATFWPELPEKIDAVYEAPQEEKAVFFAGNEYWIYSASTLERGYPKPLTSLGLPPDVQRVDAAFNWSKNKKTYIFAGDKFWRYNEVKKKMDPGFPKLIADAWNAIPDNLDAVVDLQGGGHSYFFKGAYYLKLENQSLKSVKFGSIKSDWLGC
In words: filter binding. The settings on record: 2'-F pyrimidines, 2'-OH purines; light signal; purified recombinant protein; label: 32P 5' end.

The chains behind the UniProt entries cited, without tags or fusion partners. Residues count along the entry.
UniProt P14780, 107-707: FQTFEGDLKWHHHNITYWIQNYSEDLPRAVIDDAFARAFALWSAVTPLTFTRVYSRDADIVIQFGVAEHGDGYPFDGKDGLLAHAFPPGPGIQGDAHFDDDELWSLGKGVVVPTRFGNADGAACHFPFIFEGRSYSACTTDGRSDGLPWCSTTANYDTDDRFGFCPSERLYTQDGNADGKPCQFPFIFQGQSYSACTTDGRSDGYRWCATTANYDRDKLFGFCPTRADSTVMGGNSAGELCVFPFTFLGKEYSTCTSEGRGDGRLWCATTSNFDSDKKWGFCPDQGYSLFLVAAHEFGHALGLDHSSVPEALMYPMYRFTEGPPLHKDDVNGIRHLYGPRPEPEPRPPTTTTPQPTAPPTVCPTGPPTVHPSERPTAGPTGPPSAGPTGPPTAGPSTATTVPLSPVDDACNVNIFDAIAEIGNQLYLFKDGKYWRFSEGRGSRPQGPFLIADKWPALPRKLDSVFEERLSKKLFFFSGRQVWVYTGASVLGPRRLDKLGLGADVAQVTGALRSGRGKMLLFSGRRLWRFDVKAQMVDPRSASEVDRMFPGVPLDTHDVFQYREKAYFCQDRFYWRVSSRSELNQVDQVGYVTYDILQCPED

The comparison behind a weaker result is the experiment's own reference, which may not be listed here. For part of these data: Where a protein sequence is shown, tags need not be part of it.

For the sequence CCCUGCCCUCACCCGUUAGCCUGAGCGCCCCG [F3C1], the binding result in data set [1] (SP buffer) was “binds more weakly”.

GCCCUCACCCGUUAGCCUGAGCGC [F3C2]: in data set [1] (hardly yielded a SPR signal), the binding result was “binds more weakly”.

For the sequence “GGUUACCAGCCUUCACUGCCCUGCCCUCACCCGUUAGCCUGAGCGCCCCGCACCACGGUCGGUCACAC [F3]”, in data set [2], the binding result is recorded as “binds more weakly”.

Source of the values: US20150337308.
